This passage reports binding results from PMC10190619.

Chains of the proteins cited; added tags and fusions are not shown.
UniProt P09874: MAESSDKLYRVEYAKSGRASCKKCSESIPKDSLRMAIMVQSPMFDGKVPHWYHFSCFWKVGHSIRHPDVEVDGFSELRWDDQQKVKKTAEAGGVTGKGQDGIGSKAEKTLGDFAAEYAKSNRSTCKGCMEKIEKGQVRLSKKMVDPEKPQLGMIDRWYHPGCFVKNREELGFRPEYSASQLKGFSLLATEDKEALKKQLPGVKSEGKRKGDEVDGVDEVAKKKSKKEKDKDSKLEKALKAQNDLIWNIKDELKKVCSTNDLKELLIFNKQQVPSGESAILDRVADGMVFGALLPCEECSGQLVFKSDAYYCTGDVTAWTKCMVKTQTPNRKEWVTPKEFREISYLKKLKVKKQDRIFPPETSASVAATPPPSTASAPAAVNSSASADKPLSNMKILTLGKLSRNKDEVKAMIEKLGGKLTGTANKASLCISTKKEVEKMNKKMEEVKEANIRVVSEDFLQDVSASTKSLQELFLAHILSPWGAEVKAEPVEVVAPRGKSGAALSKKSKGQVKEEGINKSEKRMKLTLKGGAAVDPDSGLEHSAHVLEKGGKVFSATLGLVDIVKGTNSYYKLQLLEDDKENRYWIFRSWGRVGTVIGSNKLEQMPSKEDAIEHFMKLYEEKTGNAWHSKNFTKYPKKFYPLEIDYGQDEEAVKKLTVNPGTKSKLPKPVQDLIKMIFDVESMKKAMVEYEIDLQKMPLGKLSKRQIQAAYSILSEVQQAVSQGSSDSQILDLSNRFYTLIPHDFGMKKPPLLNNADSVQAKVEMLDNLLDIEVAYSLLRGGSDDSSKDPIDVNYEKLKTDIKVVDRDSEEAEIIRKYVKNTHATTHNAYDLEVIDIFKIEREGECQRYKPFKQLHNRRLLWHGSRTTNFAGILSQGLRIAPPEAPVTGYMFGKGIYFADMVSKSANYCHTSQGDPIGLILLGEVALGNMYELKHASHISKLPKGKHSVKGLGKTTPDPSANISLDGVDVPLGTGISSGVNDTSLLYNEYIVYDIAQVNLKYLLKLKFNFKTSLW
UniProt Q96LA8: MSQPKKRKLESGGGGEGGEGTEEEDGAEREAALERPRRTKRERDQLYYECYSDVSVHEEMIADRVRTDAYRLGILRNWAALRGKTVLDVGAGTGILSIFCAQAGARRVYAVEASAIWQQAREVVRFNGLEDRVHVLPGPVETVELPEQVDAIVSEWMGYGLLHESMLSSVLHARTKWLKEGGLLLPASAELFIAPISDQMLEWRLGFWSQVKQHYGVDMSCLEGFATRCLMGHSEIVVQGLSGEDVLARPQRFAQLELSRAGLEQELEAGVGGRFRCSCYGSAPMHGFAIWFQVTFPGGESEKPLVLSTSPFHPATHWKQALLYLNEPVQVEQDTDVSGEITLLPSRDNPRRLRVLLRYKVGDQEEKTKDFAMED
UniProt Q13547: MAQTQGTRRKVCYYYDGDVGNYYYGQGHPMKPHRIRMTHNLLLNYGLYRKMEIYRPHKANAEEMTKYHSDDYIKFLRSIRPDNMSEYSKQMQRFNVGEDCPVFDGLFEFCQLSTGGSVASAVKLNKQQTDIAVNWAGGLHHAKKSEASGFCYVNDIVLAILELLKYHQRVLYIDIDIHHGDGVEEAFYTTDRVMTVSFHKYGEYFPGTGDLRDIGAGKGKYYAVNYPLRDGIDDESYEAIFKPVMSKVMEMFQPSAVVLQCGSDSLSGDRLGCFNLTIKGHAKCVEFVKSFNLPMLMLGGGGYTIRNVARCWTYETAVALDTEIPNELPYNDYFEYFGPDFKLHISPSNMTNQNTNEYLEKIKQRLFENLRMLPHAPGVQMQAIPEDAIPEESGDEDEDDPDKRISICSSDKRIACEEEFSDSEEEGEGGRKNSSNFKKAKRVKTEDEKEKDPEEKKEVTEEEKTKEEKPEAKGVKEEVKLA
UniProt Q92769: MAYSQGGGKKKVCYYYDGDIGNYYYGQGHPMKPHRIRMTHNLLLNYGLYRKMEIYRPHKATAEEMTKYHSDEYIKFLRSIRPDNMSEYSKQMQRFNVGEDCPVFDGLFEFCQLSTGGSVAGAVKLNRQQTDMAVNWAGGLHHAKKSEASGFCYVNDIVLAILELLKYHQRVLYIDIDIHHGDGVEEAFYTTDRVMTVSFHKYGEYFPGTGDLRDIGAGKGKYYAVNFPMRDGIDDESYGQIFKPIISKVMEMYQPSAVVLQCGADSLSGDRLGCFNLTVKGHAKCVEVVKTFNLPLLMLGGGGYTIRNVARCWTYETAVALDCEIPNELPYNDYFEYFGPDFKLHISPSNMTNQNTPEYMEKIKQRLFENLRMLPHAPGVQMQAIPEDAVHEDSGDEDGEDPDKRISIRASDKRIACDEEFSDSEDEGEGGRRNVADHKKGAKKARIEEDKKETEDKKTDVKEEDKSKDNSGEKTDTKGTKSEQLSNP

No constants are given. Whether binding was seen depends on the method and setting. Binding seen in cells or lysates may run through a third protein. These calls come from enrichment with a bait or labelling near it, and not all partners need be listed.

For one experiment, the target named is FLAG-PARP1 (UniProt P09874). Kind of experiment: affinity purification with mass spectrometry; lysate of about 5 x 10^8 HEK293T cells stably expressing FLAG-PRMT6 or FLAG-PARP1 applied to a FLAG column; eluted fractions on SDS-PAGE, silver stained, LC-MS/MS.
The target in another experiment is FLAG-PRMT6 (UniProt Q96LA8). The experiment is described as above.

Turning to “HDAC1, endogenous (from UniProt Q13547 1-482) (enzyme)”, the binding result with FLAG-PARP1 and in the experiment with FLAG-PRMT6 was “binds” throughout.

For the substance “HDAC2, endogenous (from UniProt Q92769 1-488) (enzyme)”, the binding entry in the experiment with FLAG-PARP1 and in the experiment with FLAG-PRMT6 was “binds” throughout.

With “poly(ADP-ribose) polymerase 1 (PARP1), endogenous (from UniProt P09874 1-1014) (enzyme)”, the binding result with FLAG-PRMT6 is “binds”. Consider “protein arginine methyltransferase 6 (PRMT6), endogenous (from UniProt Q96LA8 1-375) (enzyme)”, for which, in the experiment with FLAG-PARP1, the binding entry is on record as “binds”.
